In patent US20210230242A1:
Numbering of substitutions follows the chain as printed. These are yes or no findings as the source states them, for the method shown. Some entries that bind do so weakly or less than the wild type. For part of these data: Tags and fused reporters may be left off the sequences shown.

The chains behind the UniProt entries cited, without tags or fusion partners. Residues count along the entry.
UniProt P07724, residues 25-608: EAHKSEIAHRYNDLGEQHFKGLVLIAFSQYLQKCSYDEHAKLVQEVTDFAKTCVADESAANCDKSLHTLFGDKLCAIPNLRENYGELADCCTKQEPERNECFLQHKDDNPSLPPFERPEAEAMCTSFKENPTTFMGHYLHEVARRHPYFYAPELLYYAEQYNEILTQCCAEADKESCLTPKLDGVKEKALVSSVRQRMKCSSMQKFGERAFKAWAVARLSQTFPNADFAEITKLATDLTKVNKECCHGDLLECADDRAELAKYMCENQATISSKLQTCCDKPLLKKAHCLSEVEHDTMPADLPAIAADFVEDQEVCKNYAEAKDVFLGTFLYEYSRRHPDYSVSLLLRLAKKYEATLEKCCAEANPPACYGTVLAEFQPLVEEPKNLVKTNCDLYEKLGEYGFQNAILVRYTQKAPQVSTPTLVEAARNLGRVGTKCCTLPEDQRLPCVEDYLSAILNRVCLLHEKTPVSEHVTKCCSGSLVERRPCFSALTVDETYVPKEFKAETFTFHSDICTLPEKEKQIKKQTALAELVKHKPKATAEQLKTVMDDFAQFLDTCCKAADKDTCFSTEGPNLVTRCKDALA
UniProt P02768, residues 25-609: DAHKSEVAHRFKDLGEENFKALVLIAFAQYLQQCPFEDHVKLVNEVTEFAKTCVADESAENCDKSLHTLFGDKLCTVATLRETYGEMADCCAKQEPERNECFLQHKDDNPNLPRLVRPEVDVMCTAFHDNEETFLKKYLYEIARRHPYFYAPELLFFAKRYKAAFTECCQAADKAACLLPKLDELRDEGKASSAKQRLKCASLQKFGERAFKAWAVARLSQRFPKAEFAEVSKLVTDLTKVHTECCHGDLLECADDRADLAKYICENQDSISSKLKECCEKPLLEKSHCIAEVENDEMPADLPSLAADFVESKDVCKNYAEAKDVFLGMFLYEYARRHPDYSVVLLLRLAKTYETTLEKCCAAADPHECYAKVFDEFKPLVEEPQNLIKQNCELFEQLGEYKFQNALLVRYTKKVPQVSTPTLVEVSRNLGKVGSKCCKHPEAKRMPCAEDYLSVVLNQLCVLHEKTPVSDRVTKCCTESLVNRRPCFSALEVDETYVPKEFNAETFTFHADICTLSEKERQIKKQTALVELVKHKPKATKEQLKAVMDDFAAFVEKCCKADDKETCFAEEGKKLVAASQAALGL
UniProt A2V9Z4, residues 25-608: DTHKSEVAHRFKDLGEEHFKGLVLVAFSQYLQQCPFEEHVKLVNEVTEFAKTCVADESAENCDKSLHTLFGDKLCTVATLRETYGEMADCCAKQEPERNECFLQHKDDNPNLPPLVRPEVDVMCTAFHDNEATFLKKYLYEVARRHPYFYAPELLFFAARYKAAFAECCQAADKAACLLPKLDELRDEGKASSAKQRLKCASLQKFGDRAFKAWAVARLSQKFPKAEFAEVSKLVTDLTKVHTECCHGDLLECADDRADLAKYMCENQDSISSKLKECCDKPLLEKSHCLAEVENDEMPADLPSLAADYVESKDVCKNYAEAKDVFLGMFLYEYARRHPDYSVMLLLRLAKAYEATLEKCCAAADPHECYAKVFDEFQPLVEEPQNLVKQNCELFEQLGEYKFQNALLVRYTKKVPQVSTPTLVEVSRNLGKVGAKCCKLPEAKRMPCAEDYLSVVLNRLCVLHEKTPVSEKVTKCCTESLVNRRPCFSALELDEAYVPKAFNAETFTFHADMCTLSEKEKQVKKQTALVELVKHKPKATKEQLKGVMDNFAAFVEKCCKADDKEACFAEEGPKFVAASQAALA

Experiments:
[1] = molecular target: Mouse serum albumin (mouse) (UniProt P07724); assay: Octet RED96 BLI, antibody on AHC biosensor, albumin at 200 nM
[2] = molecular target: Mouse serum albumin (mouse) (UniProt P07724); assay: Octet BLI
[3] = molecular target: Mouse serum albumin (mouse) (UniProt P07724); assay: BLI (Octet RED96): AWT-P367 loaded on AHC biosensor, dipped into mouse albumin at 200 nM
[4] = molecular target: Human serum albumin (human) (UniProt P02768); assay: Octet RED96 BLI, antibody on AHC biosensor, albumin at 200 nM
[5] = molecular target: Cynomolgus monkey serum albumin (cynomolgus monkey) (UniProt A2V9Z4); assay: as above
[6] = molecular target: Human serum albumin (human) (UniProt P02768); assay: Octet BLI
[7] = molecular target: Cynomolgus monkey serum albumin (cynomolgus monkey) (UniProt A2V9Z4); assay: Octet BLI
[8] = molecular target: Cynomolgus monkey serum albumin (cynomolgus monkey) (UniProt A2V9Z4); assay: BLI (Octet RED96): AWT-P494 loaded on AHC biosensor, dipped into cyno albumin at 200 nM
[9] = molecular target: Mouse serum albumin (mouse) (UniProt P07724); assay: BLI (Octet RED96): AWT-P494 loaded on AHC biosensor, dipped into mouse albumin at 200 nM
[10] = molecular target: Human serum albumin (human) (UniProt P02768); assay: BLI (Octet RED96): AWT-P494 loaded on AHC biosensor, dipped into human albumin at 200 nM
[11] = molecular target: Mouse serum albumin (mouse) (UniProt P07724); assay: BLI, P367-IgG1 Fc on protein A biosensor, albumin at 400, 200 and 100 nM
[12] = molecular target: Human serum albumin (human) (UniProt P02768); assay: as above
[13] = molecular target: Cynomolgus monkey serum albumin (cynomolgus monkey) (UniProt A2V9Z4); assay: as above
[14] = molecular target: Mouse serum albumin (mouse) (UniProt P07724); assay: BLI, Fc fusion on protein A biosensor, albumin at 400, 200 and 100 nM
[15] = molecular target: Human serum albumin (human) (UniProt P02768); assay: as above
[16] = molecular target: Cynomolgus monkey serum albumin (cynomolgus monkey) (UniProt A2V9Z4); assay: as above

Measured: binding

B1: Anti-HSA single domain (VHH) antibody P367 (VHH)
VHH: QVQLVESGGGLVQPGGSLRLSCAASGSTWSINTLAWYRQAPGKQRDLVARISSGGSTHYADSVKGRFTVSRDNAENTLVLQMNSLKPEDTAVYYCYAQSTWYPPSWGQGTQVTVSS
binds: [1] | [2] | [3]

B2: Humanized anti-HSA antibody AWT-P494 (VHH)
VHH: B1 VHH with Q1E, H58Y, V69I, A74S, E75K, V79Y, K86R, P87A, Q111L
binds: [1] | [4] | [5] | [2] | [6] | [7] | [8] | [9] | [10]

B3: P367-IgG1 Fc fusion protein (Fc fusion, not shown: a dimerising Fc or GST)
chain: B1 VHH
binds: [11] | [12] | [13] | [14] | [15] | [16]
